Results are given in words; binding and its absence hold for the method and conditions named. Some entries that bind do so weakly or less than the wild type.
Target: Interleukin-12 (IL-12) (human) (UniProt P29459)
Test: phage panning of the immune-derived llama VHH library against IL-12

Amino acid sequences for entries named in this document (tags omitted). A change or cut given only in a name is not applied to a line headed by its entry.
UniProt P29459: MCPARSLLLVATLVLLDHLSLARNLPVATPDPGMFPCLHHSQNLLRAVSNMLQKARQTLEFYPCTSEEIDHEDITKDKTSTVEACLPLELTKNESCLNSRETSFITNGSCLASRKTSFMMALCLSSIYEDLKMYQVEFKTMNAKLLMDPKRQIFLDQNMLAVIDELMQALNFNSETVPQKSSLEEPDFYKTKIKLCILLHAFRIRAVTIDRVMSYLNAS

Binder | binding
BI-043 (VHH) VHH: EVQLVESGGGLVQAGGSLRLSCAASGRTYSTVAMGWFRQAPGKEREFVGAITWSVGNTAVADSVKGRFAISRDSAKNTVYLQMNSLKVEDTAVYYCASRTNIGAFNLFRENHYNYWGQGTQVTVSS | binds
BI-004 (VHH) VHH: EVQLVESGGGLVQPGGSLRLSCAASGFSFSSSWMFWVRQPPGKGLEWVSTISPSGDYSRYADSVQGRFTISRDNTKNTLSLQMNSLKPEDTALYYCARDLRGTMRGQGTQVTVSS | binds
BI-007 (VHH) VHH: EVQLVESGGGLVQPGGSLRLSCVASGSIGSVVSWGWYRQAPGLERELVASDASGGRPNYQDSVKGRFTISRDSAKNTVYLQMNSLKPEDTAVYYCNLRGLQLDMGLYDSWGQGTQVTVSS | binds
BI-044 (VHH) VHH: EVQLVESGGGLVQPGGSLRLSCKASGSIGSVTSMGWYRQAPGKQRDLVASADSNGRTTFQDFVQGRFTISRDSAKNTWYLQMNSLKPEDTAVYYCHLRGLQLTMGLYESWGQGTQVTVSS | binds
BI-046 (VHH) VHH: EVQLVESGGGSVQTGGSLRLSCKVSEGSFMRYNMGWFRQAPGKERDFVAAMSGALALIRYADSVKGRFTISRDNSKNTVYLDMNSLKPEDTAVYYCAADLEPQYWTKAGQRDTYDVWGQGTQVTVSS | binds

Now from value to binder:

binding | Binder
binds | BI-005 (VHH) VHH: QVQLVESGGGLVQPGGSLRLSCAASGFTFSNFVMKWYHQAPGKERDLVASIDTTHFTNYADSVKGRFTISRDNSKNTVYLQMNSLKSEDTAVYYCKVRRRDYEDYWGQGTQVTVSS
binds | BI-047 (VHH) VHH: EVQLVESGGGLVQAGGSLRLSCAASGSISSNIMGWFRQAPGKEREFVAVISRRGLILDYGDSVKGRFTMSRDNAKKAVYLQMNSLKPEDTAVYYCAVGKTTDRFSEIPSDYDYWGQGTQVTVSS
binds | BI-006 (VHH) VHH: EVQLVESGGGLVQAGGSLRLSCAASGRTFSRYNMGWFRQAPGKEREFVAAIIWSGGVINYADSVKGRFTISRDNAKNTVYLQMNSLKPEDTARYYCAADDKYYDRIVRGTADYWGQGTQVTVSS
binds | BI-008 (VHH) VHH: EVQLVESGGGLVQAGDSLKLSCATSGRPSRDYAMGWFRQAPGKKRDFVAGISSGGGFTNYADSVKARFTISKDNAKNTVYLQMNSLKPEDTAVYYCAAQSGTNYISRTSPPYWGQGTQVTVSS
binds | BI-045 (VHH) VHH: EVQLVESGGGAVQAGGALNVSCAASGRAFSRTLMGWFRQAPGKEREFVAGISWVSVTPDYGNSVKGRFTISRDNAKSTVYLQMNSLKPEDTAVYYCAASQRYGTPRRRPNDYEYWGQGIQVTVSS
